Test results taken from PubChem BioAssay AID504467 (National Center for Advancing Translational Sciences (NCATS), 2011).
Among all 330,000 compounds or so, about 7,700 (2.3%) were called active. Inconclusive results, whose numbers are uncertain, are shown with a selection of clear calls. Calls come from the whole dose curve; as a rule, active = well fitted inhibition curve with a large enough effect; inconclusive = small, poorly fitted or top-dose-only effect, or effect the other way; inactive = flat fitted curve, though single readings scatter. Potencies beside an inconclusive call are fits to weak or partial responses and may not hold up.
Potency is the fitted concentration of half-maximal effect.

Test: qHTS screen for small molecules that inhibit ELG1-dependent DNA repair in human embryonic kidney (HEK293T) cells expressing luciferase-tagged ELG1; note: nearly all actives have a fitted effect of over 55% in size
Settings: HEK293T ELG1-luciferase reporter, luminescence, 16 h, DNA damage induced by 5-fluorouridine; series mostly up to 46.1 µM
Summary of the method: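 Quantitative HTS, concentration-response format. 2,000 cells/well co-treated with 5-fluorouridine and compound, 16 hr in 5% CO2 at 37 °C; ONE-Glo luminescence read after 30 min.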
With COc1ccc(C(=O)N2CCCc3ccccc32)cc1 the Potency was “inactive”.
For CCN(CC)C(=O)c1sc(NC(=O)Cc2ccccc2)c(C#N)c1C, the Potency was inconclusive: 29.1 µM [inhibitor, single point].
In the case of Cc1cccc(NC(=O)NC(=O)c2ccccc2)n1, the Potency is reported as inconclusive: 6.51 µM [activator, single point].
In the case of O=C(O)c1ccccc1Nc1ccc([N+](=O)[O-])c2nonc12, the Potency is reported as “inactive”.
In the case of COc1ccc(CCNC(=O)c2coc3ccccc3c2=O)cc1, the Potency is reported as inconclusive: 29.1 µM [inhibitor, single point].
For Cc1ccc(C)c(OCC(=O)NNC(=O)CCN2CCN(c3ccccc3)CC2)c1, the Potency was “inactive”.
With C=C(C)Cn1c(CN(C)Cc2ccccc2)nc2c1c(=O)n(C)c(=O)n2C the Potency was inconclusive: 23.1 µM [inhibitor, partial curve].
With CCCS(=O)(=O)N1CCN(C(=O)c2ccc(-c3ccccc3)cc2)CC1 the Potency was inconclusive: 20.6 µM [inhibitor, partial curve, poor fit].
With C=CCSc1nc2ccccc2n1C(=O)/C=C/c1ccc(OC)c(OC)c1 the Potency was inconclusive: 29.1 µM [inhibitor, single point].
With COc1cccc(COC(=O)c2cc(S(=O)(=O)N3CCCCC3)ccc2N2CCOCC2)c1OC the Potency was inconclusive: 29.1 µM [activator, single point].
With COc1cccc(/C=N/NC(N)=S)c1OCc1ccccc1Cl the Potency was “inactive”.
For COC(=O)CCc1c(C)c(C(=O)c2cccc(OC)c2OC)c2ccccn12, the Potency was inconclusive: 23.1 µM [inhibitor, single point].
For CCN(CC)C(=O)[C@H]1C[C@H](CC(=O)NCCc2ccccn2)C(=O)N2CCc3c([nH]c4cc(CCC(=O)N(C)C)ccc34)[C@]12C, the Potency was inconclusive: 20.6 µM [activator, single point].
In the case of Cc1ccc(NC(=O)c2cc(S(=O)(=O)N3CCCCC3)ccc2N2CCOCC2)cc1F, the Potency is reported as inconclusive: 23.1 µM [inhibitor, partial curve, poor fit].
In the case of CCCN(Cc1ccccc1)C(=S)Nc1cccc(C)c1C, the Potency is reported as “inactive”.
In the case of COc1ccc2[nH]c(C(=O)Nc3cccc(C)n3)cc2c1, the Potency is reported as inconclusive: 2.91 µM [activator, partial curve].
In the case of C/C(CC(=O)Nc1ccccn1)=N\NC(=O)c1ccc([N+](=O)[O-])cc1Cl, the Potency is reported as “inactive”.
For O=C(NCC1CC1)Nc1ccc(Cl)cc1, the Potency was inconclusive: 0.517 µM [activator, partial curve].
In the case of CC1=NN(C(N)=S)C(=O)C1N=Nc1ccc(S(N)(=O)=O)cc1 (stereo unspecified), the Potency is reported as “inactive”.
With CN(C(=O)COC(=O)COc1ccc(Cl)cc1Cl)c1c(N)n(Cc2ccccc2)c(=O)[nH]c1=O the Potency was “inactive”.
For COc1ccc(C(=O)N=S2CCN(C(=O)c3ccc(Cl)cc3)CC2)cc1, the Potency was “inactive”.
With COc1ccc(CCNC(=O)c2ccc(CNS(=O)(=O)c3cc(C)ccc3C)cc2)cc1OC the Potency was active: 20.6 µM.
For CC(NC(=O)c1sc2cc([N+](=O)[O-])ccc2c1Cl)C(C)(C)C (stereo unspecified), the Potency was “inactive”.
In the case of C/C(=C/C(=O)Nc1cccc(F)c1)N1CCCC1, the Potency is reported as “inactive”.
In the case of COc1ccc(CN2C[C@H](C)[C@@H](CC(=O)NCc3ccccc3)C2=O)cc1, the Potency is reported as “inactive”.
With Cc1c(NC(=O)c2ccco2)cccc1-c1nc2cccnc2s1 the Potency was “inactive”.
With O=C(CSc1ccccc1)Nc1ccc(-c2nc3ccccc3[nH]2)cc1 the Potency was inconclusive: 3.66 µM [activator, full curve].
In the case of Brc1ccc(/C=N/Nc2ccc3ccccc3n2)cc1, the Potency is reported as inconclusive: 18.4 µM [activator, partial curve].
For CCC(C)(C)n1nnnc1C(c1cc(OC)c(OC)c(OC)c1)N1CCN(c2ccccc2)CC1 (stereo unspecified), the Potency was “inactive”.
In the case of O=C(NCc1ccco1)c1cccc2c1C(=O)c1ccc(/C=C/c3ccccc3)cc1S2(=O)=O, the Potency is reported as inconclusive: 2.06 µM [inhibitor, full curve].
For COc1ccc(C(c2c[nH]c3ccccc23)c2c[nH]c3ccccc23)cc1O, the Potency was inconclusive: 14.6 µM [activator, single point].
With COc1cc(/C=C/C(=O)OCC(=O)Nc2ccc3c(c2)OCCO3)ccc1O the Potency was inconclusive: 32.6 µM [inhibitor, partial curve, poor fit].
With CC(=O)Nc1ccccc1C(=O)C(=O)Nc1ccc(F)cc1 the Potency was inconclusive: 11.6 µM [activator, partial curve].
For COc1ccc(-n2nnnc2/C=C\Nc2ccccc2C(=O)c2ccccc2)cc1, the Potency was “inactive”.
With Cc1ccc(C(=O)COC(=O)CNC(=O)Cc2ccccc2)cc1[N+](=O)[O-] the Potency was inconclusive: 29.1 µM [inhibitor, single point].
With CN(C)c1ccc(C(O)Cc2nc3ccccc3n2C)cc1 (stereo unspecified) the Potency was inconclusive: 2.91 µM [activator, full curve].
With Cn1ccnc1SCC(=O)Nc1ccc2c(c1)COC2=O the Potency was inconclusive: 20.6 µM [activator, partial curve].
In the case of COc1ccc(-n2ccnc2CN2CCN(C3CCCC3)C(CCO)C2)cc1 (stereo unspecified), the Potency is reported as inconclusive: 16.4 µM [activator, partial curve, poor fit].
For COc1cccc(NC=C2C(=O)OC3(CCCCC3)OC2=O)c1, the Potency was inconclusive: 20.6 µM [activator, single point].
With CCC(=O)Nc1ccc(-c2nc(-c3ccccc3)n(CC(=O)N3CCCCC3)n2)cc1 the Potency was inconclusive: 7.94 µM [inhibitor, partial curve, poor fit].
With COc1ccccc1N1CCN(Cc2cc(=O)c(OCC(=O)NC(C)C)co2)CC1 the Potency was “inactive”.
In the case of Cc1cc(NC(=O)c2ccccc2C)no1, the Potency is reported as inconclusive: 13 µM [activator, partial curve].
In the case of Cc1cc2nc(NC3=NCN(CCN4CCOCC4)CN3)nc(C)c2cc1C, the Potency is reported as “inactive”.
In the case of Cc1nc(NC(=O)/C=C/c2ccccc2)sc1C(=O)N(C)C, the Potency is reported as inconclusive: 20.6 µM [activator, partial curve].
In the case of Cc1ccc(-c2nc3cccnc3o2)cc1NC(=O)COc1ccc(Cl)cc1C, the Potency is reported as “inactive”.
With O=C(NCc1ccccc1)C12CC3CC(CC(C3)C1)C2 the Potency was “inactive”.
